Data taken from PubChem BioAssay AID743266 (National Center for Advancing Translational Sciences (NCATS), 2014).
The campaign covered roughly 410,000 compounds. About 310 (0.076%) were called active. The inconclusive results got no clear call from the source; some entries with a clear call stand among them for comparison. Calls come from the whole dose curve; as a rule, active = well fitted activation curve with a large enough effect; inconclusive = small, poorly fitted or top-dose-only effect, or another doubt; inactive = no such curve, though single readings can be large or run the other way. Potencies of inconclusive entries are doubtful fits and often do not repeat.

Chains of the proteins cited; added tags and fusions are not shown. Lines headed by an entry give the natural chain unless they say otherwise; changes in a name come on top.
UniProt Q03431: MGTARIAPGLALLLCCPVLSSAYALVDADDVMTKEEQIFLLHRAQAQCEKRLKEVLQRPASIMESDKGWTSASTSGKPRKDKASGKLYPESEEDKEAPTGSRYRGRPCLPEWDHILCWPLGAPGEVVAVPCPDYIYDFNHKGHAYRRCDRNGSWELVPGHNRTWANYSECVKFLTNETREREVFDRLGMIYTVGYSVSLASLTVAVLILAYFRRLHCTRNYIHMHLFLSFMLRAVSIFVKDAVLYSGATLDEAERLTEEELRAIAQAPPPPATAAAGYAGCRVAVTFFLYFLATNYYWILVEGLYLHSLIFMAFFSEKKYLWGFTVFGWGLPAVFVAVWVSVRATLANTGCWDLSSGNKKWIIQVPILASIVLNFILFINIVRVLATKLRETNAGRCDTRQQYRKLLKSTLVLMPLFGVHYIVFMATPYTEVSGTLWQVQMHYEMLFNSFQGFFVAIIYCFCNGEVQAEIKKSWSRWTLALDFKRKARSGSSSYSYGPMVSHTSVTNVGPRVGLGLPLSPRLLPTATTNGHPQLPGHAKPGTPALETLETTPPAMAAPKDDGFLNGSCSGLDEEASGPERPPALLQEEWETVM

Biological target: Parathyroid hormone/parathyroid hormone-related peptide receptor (Homo sapiens) (UniProt Q03431)
Assay: qHTS for PTHR1 Agonists: Primary Screen; note: nearly all actives have a fitted effect of over 55% in size
Conditions: HEK293 GP2 PTHR1 cells, GloSensor cAMP luminescence, 1 h; activation: at 115 µM (top of the series) unless noted; series mostly up to 115 µM
Text: The goal of the proposed studies is to discover new compounds that act as potent agonists on the parathyroid hormone receptor type-1 (PTHR1). The PTHR1 plays critical roles in maintaining blood calcium and phosphate levels, as well as in controlling bone remodeling. PTHR1 agonists could thus be useful for treating diseases such as hypoparathyroidism and osteoporosis. In the former disease, an agonist drug would help maintain normal blood calcium and phosphate levels under conditions of parathyroid hormone deficiency. In the latter disease, an agonist drug would stimulate new bone formation and thus reduce the risk of fracture, under conditions of bone fragility, as occurs in aging.
To that end, we performed a quantitative high-throughput screening (qHTS) of the Molecular Libraries Probe Centers Network (MLPCN) compound libraries at the NIH Chemical Genomics Center (NCGC) for the parathyroid hormone receptor type-1 (PTHR1) using a unique HEK-293-derived cell line (GP2) that expresses the PTHR1 and a glosensor cAMP reporter construct.
NIH Molecular Libraries Probe Production Centers Network [MLPCN]
NIH Chemical Genomics Center [NCGC]
Assay Submitter (PI): Thomas Gardella, Massachusetts General Hospital
4 microL are dispensed into a 1536-well micro plate to yield 3,000 cells/well. The plates are then incubated overnight, after which 4 microL of 0.5 mM of BIoTium Luciferin plus 0.5 mM IBMX are added. They are then incubated at 37 degree for one hour before 23 nL of compounds are added through pinning and then incubated at 37 degree again for another hour. After the plates are kept at room temperature for 15 min before they are read on the ViewLux to measure luminescence.
Potency is the fitted concentration of half-maximal effect.

activation, inconclusive:
O=C(CC[C@H]1O[C@@H](n2cnc3c(NC(=O)c4ccccc4)ncnc32)[C@H](O)[C@@H]1O)NCCc1cc2ccccc2[nH]1 46.5% [activator], CC(C)(C)NC(=O)C(=O)NNC(=O)c1cccc(F)c1 4.28% [activator], C=C(C)CN(CC)C(=O)COc1ccc(S(=O)(=O)Nc2ccc(OC)cc2)cc1 -33.7% [activator] [at 57.5 µM]

activation, inactive:
Cc1ccc(C(=O)Oc2ccc(Br)cc2C(=S)N2CCOCC2)cc1 -51.1%, Cn1cc(S(=O)(=O)N2CCc3ccccc32)cc1C(=O)Nc1ccc(C(F)(F)F)cc1 -32.3%, CCCN(C(=O)c1c(C)oc2ncn(CC(C)C)c(=O)c12)c1ccccc1C -30.2%, Cc1nc2c(C)cccc2cc1C(=O)N/N=C/c1ccc(O)cc1 -34.2%, CCCOc1ccc(C(=O)Nc2cc(-c3nc4ccccc4[nH]3)ccc2C)cc1 -16.8%, Cc1ccccc1OCC(=O)Nc1nnc(SCc2cc(=O)n3cccc(C)c3n2)s1 -1.85%, C=C1CCN([C@@H](CC(C)C)C(=O)NCCC(C)C)S(=O)(=O)c2ccccc21 -17.2%, CC(NC(=O)CN(C)CC(=O)Nc1ccc(Cl)c(C(F)(F)F)c1)c1ccccc1 (stereo unspecified) -36.1%, CCOC(=O)c1c(C)[nH]c(C(C)=NNC(=O)c2cccs2)c1C -12.9%, C(=N\NC1=Nc2cccc3cccc1c23)/c1cccnc1 -16.3%

Potency, inconclusive:
COc1ccc(NS(=O)(=O)c2cc([N+](=O)[O-])ccc2NN=Cc2ccccc2OCC(=O)O)cc1 8.91 µM [activator, partial curve, poor fit], COc1cccc(N2CCN(C(=O)C3C4C=CC5(CN(Cc6ccccc6Cl)C(=O)C35)O4)CC2)c1 (stereo unspecified) 39.8 µM [activator, partial curve, poor fit], COc1ccc(-c2nn(C)c3sc(C(=O)Nc4cc(OC)c(OC)c(OC)c4)cc23)cc1OC 126 µM [activator, partial curve, poor fit], COCCCN1CN=C(Nc2nc3ccccc3o2)NC1 1.41 µM [activator, partial curve, poor fit], Cc1cc(C)n(-c2nc3ccccc3nc2N2CCN(c3cccc(C)c3C)CC2)n1 126 µM [activator, single point], COc1cccc(C(C(=O)NC2CCCC2)N(C(=O)c2ccco2)c2ccccc2)c1OC (stereo unspecified) 5.01 µM [activator, full curve, poor fit], C=CCSc1nnc(C)n1-c1ccc(Cl)cc1 39.8 µM [activator, single point], CC(C)c1nc2n(n1)C1(CCCCC1)[C@@H]1CCCC[C@@H]1N2 70.8 µM [activator, partial curve, poor fit], Cc1nc(NC(=O)CSc2nnc3ccccn23)c(Cl)cc1Cl 28.2 µM [activator, partial curve, poor fit], Cc1nn(CC(=O)Nc2cc(F)ccc2F)c(=O)c2cccn12 126 µM [activator, single point], COc1cc(CC(=O)Nc2cc(S(=O)(=O)N3CCOCC3)ccc2N2CCCC2)cc(OC)c1OC 0.767 µM [activator, full curve], O=C(NCCCN1CCCC1=O)c1cncc(Br)c1 5.01 µM [activator, full curve], CCOc1cc(C2NC(=O)N(C)C(C)=C2[N+](=O)[O-])ccc1OC(C)=O (stereo unspecified) 35.5 µM [activator, partial curve, poor fit], CC(C)(C)C(=O)Nc1ccc(S(=O)(=O)NC2=NCCCCC2)cc1 50.1 µM [activator, single point], Cc1ncc(COC(=O)C(C)C)c2cc(C(=O)Nc3ccccc3C(F)(F)F)c(=O)oc12 70.8 µM [activator, partial curve, poor fit], COC(=O)NNC(=O)C1CCC(C)CC1 (stereo unspecified) 100 µM [activator, partial curve, poor fit], Cn1c(=O)n(Cc2ccco2)c(=N)c2c3c(sc21)CCC3 39.8 µM [activator, single point], COc1ccc(NC(=O)CSc2nc(-c3ccc(OC)cc3)[nH]c2-c2ccc(F)cc2)cc1 89.1 µM [activator, single point], O=C(O)c1cc(NC(=O)c2cccc(C(=O)Nc3cc(C(=O)O)cc(C(=O)O)c3)c2)cc(C(=O)O)c1 79.4 µM [activator, partial curve, poor fit], CCOc1ccc2c(c1)c1nc3ccccc3nc1n2C 89.1 µM [activator, single point], CCOC(=O)C1=C(c2ccccc2)N=c2s/c(=C\c3cc(OC)c(OC)c(OC)c3)c(=O)n2C1c1cccs1 (stereo unspecified) 31.6 µM [activator, partial curve], COc1cc(CCC(=O)NCc2ccc3c(c2)CCN3C(=O)c2cccc(C)c2)cc(OC)c1OC 12.6 µM [activator, partial curve, poor fit], CCOC(=O)C1(C)CCCN(C(=O)c2ccc(OC)cc2)C1 (stereo unspecified) 0.767 µM [activator, full curve, poor fit], Cc1ccnc(NS(=O)(=O)c2ccc(CC(C)C)cc2)c1 44.7 µM [activator, single point], COc1ccc(OC)c(CCNC(=O)c2ccc3[nH]c(C)c(C)c3c2)c1 5.01 µM [activator, full curve, poor fit], C#CCOC(=O)CCCC(=O)Nc1ccccc1OC 70.8 µM [activator, single point]

outcome, inactive:
Cc1nnc(NC(=O)CSc2nc(N)c(NC(=O)c3cccs3)c(=O)[nH]2)s1, CCCCCCCCNS(=O)(=O)CCNCc1ccccc1
